{"source": "PubChem BioAssay AID1259280 – Sanger Institute – 2017", "aim": "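Kinome siRNA screen for partners that synergise with BYL719, cetuximab or trametinib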 (primary screen)", "system": "human SNU407 colorectal cancer cells", "reagents": "siRNA pool against human genes", "treatment": "anchor drugs BYL719 at 1 µM, cetuximab at 5 µg/ml or trametinib at 10 nM, or DMSO vehicle alone; exposure time not given", "measured": "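Viability relative to non-targeting control siRNA, expressed as robust z-score, plus a synergy score for each of the three anchor drugs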", "reading the numbers": "viability z-score, no drug and viability vs control, no drug: higher = more cells survive the knock-down", "call rule": "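Essential calls require a no-drug robust viability z-score under -3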", "meaning of the calls": "active = essential (knock-down alone kills cells); inactive = no change without drug", "note": "Shown is an unselected part of 794 reagents. Over the whole deposit, 12 (1.5%) are marked active. 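Calls cover knock-down without drug only; synergy scores stand apart, values above 0.15 being treated as synergy.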 A number with no mark means an inactive call. Viability is capped at 1. Further read-outs or replicates are left out here. No sequences are given here. Not given: the amount of reagent, the time to read-out."}
{"target gene": "AMHR2", "viability z-score, no drug": 0.66, "viability vs control, no drug (fraction of control)": 0.982}
{"target gene": "CHD4", "viability z-score, no drug": "-3.23 (active)", "viability vs control, no drug (fraction of control)": 0.685}
{"target gene": "BRD2", "viability z-score, no drug": 0.737, "viability vs control, no drug (fraction of control)": 0.987}
{"target gene": "ABL2", "viability z-score, no drug": 0.317, "viability vs control, no drug (fraction of control)": 0.955}
{"target gene": "PGK1", "viability z-score, no drug": 0.421, "viability vs control, no drug (fraction of control)": 0.963}
{"target gene": "PAK2", "viability z-score, no drug": 0.869, "viability vs control, no drug (fraction of control)": 0.998}
{"target gene": "YES1", "viability z-score, no drug": -0.264, "viability vs control, no drug (fraction of control)": 0.911}
{"target gene": "PDK4", "viability z-score, no drug": 0.901, "viability vs control, no drug (fraction of control)": 1}
{"target gene": "CAMKK2", "viability z-score, no drug": 0.654, "viability vs control, no drug (fraction of control)": 0.981}
{"target gene": "IRAK3", "viability z-score, no drug": -2.49, "viability vs control, no drug (fraction of control)": 0.741}
{"target gene": "KALRN", "viability z-score, no drug": -1.65, "viability vs control, no drug (fraction of control)": 0.805}
{"target gene": "CDK5R2", "viability z-score, no drug": 0.247, "viability vs control, no drug (fraction of control)": 0.95}

Continued, starting with the last 2 of the part before.
{"target gene": "KALRN", "viability z-score, no drug": -1.65, "viability vs control, no drug (fraction of control)": 0.805}
{"target gene": "CDK5R2", "viability z-score, no drug": 0.247, "viability vs control, no drug (fraction of control)": 0.95}
{"target gene": "MAPK1", "viability z-score, no drug": -1.21, "viability vs control, no drug (fraction of control)": 0.838}
{"target gene": "MAPK8", "viability z-score, no drug": -1.31, "viability vs control, no drug (fraction of control)": 0.831}
{"target gene": "STK10", "viability z-score, no drug": 0.238, "viability vs control, no drug (fraction of control)": 0.949}
{"target gene": "AKT3", "viability z-score, no drug": 0.419, "viability vs control, no drug (fraction of control)": 0.963}
{"target gene": "ITSN1", "viability z-score, no drug": -0.148, "viability vs control, no drug (fraction of control)": 0.92}
{"target gene": "ETNK1", "viability z-score, no drug": 0.901, "viability vs control, no drug (fraction of control)": 1}
{"target gene": "RIPK1", "viability z-score, no drug": 0.901, "viability vs control, no drug (fraction of control)": 1}
{"target gene": "EPHA2", "viability z-score, no drug": 0.758, "viability vs control, no drug (fraction of control)": 0.989}
{"target gene": "DMPK", "viability z-score, no drug": -0.942, "viability vs control, no drug (fraction of control)": 0.859}
{"target gene": "TP53RK", "viability z-score, no drug": 0.901, "viability vs control, no drug (fraction of control)": 1}
{"target gene": "MAP4K4", "viability z-score, no drug": 0.0808, "viability vs control, no drug (fraction of control)": 0.937}
{"target gene": "MUSK", "viability z-score, no drug": 0.901, "viability vs control, no drug (fraction of control)": 1}
{"target gene": "BRD3", "viability z-score, no drug": 0.405, "viability vs control, no drug (fraction of control)": 0.962}
{"target gene": "MAGI2", "viability z-score, no drug": 0.706, "viability vs control, no drug (fraction of control)": 0.985}
{"target gene": "CAMK2A", "viability z-score, no drug": 0.547, "viability vs control, no drug (fraction of control)": 0.973}
{"target gene": "PIK3R2", "viability z-score, no drug": 0.24, "viability vs control, no drug (fraction of control)": 0.95}
